Drawing on doi:10.1101/2022.06.13.495977, this text covers binding for two substances.

Amino acid sequences for entries named in this document (tags omitted). A change or cut given only in a name is not applied to a line headed by its entry.
UniProt P03372: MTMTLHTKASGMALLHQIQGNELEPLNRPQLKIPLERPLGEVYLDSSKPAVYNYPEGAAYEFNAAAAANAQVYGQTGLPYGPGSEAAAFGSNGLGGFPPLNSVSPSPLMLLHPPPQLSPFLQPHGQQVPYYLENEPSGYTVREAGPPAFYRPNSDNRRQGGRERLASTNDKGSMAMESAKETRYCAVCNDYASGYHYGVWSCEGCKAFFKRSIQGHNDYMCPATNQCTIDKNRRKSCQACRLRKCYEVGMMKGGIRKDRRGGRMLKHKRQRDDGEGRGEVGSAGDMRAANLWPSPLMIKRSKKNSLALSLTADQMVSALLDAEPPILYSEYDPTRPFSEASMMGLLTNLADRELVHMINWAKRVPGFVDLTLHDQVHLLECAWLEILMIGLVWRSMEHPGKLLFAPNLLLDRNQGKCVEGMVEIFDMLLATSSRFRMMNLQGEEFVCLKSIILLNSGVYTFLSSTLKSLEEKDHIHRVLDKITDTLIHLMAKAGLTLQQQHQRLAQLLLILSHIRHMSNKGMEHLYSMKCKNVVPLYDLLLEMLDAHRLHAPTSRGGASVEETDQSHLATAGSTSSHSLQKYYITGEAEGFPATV
UniProt Q09472: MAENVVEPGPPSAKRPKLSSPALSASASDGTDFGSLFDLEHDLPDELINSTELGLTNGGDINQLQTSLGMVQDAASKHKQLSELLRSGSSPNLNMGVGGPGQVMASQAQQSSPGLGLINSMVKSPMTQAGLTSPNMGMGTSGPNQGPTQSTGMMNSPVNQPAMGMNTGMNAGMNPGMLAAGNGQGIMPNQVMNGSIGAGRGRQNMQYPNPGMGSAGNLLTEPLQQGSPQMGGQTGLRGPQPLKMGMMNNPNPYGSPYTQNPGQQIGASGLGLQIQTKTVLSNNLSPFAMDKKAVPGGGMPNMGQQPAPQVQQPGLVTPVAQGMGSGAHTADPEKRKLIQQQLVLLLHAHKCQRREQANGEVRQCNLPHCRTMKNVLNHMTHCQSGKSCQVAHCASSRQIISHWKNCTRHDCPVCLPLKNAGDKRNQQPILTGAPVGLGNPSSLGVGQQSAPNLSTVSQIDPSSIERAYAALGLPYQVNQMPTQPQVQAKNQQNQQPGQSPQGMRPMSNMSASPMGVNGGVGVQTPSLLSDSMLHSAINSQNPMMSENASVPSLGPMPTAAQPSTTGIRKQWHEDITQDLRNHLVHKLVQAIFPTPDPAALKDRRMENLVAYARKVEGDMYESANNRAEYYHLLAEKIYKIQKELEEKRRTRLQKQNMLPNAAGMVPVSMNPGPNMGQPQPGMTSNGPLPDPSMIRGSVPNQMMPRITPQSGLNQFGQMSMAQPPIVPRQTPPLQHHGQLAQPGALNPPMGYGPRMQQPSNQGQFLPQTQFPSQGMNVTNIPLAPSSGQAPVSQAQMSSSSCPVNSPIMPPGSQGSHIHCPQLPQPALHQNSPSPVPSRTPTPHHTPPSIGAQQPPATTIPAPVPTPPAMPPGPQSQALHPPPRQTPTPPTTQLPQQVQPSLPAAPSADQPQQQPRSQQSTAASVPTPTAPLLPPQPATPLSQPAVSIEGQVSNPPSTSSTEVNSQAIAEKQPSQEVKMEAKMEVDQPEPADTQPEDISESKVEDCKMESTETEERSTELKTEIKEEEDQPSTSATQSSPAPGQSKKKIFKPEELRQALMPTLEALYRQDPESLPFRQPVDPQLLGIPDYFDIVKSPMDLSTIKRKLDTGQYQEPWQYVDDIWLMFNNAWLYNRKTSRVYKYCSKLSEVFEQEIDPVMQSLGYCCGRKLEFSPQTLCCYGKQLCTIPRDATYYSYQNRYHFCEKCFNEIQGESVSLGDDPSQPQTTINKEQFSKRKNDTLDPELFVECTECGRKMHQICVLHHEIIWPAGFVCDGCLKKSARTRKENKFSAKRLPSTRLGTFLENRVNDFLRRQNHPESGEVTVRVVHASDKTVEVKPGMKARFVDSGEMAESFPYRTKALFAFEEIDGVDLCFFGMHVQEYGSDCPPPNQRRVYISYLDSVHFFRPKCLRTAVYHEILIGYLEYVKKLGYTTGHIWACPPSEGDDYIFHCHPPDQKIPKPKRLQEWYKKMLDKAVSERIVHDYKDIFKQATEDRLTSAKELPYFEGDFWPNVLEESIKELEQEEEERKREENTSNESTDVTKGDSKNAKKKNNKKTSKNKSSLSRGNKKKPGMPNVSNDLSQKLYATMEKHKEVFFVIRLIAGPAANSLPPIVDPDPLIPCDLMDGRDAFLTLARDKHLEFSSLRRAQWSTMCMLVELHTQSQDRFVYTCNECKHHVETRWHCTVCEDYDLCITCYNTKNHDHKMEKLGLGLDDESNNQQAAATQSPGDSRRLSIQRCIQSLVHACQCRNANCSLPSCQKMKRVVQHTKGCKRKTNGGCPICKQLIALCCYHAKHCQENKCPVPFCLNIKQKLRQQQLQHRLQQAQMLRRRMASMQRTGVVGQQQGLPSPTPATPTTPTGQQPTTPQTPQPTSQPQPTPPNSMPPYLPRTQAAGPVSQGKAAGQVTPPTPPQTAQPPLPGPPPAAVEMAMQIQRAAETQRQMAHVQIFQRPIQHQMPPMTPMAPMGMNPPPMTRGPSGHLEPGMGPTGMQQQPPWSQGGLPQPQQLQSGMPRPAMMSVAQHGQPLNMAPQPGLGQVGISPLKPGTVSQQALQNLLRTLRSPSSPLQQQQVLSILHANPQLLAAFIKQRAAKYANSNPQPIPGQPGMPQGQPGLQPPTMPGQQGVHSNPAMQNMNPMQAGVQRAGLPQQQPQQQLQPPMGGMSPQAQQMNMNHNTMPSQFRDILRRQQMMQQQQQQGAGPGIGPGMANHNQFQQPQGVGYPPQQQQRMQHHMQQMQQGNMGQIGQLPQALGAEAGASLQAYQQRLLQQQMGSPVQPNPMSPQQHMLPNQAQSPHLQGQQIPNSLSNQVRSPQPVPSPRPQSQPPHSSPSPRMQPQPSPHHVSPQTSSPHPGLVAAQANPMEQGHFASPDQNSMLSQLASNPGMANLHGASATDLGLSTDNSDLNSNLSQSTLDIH
UniProt P50750: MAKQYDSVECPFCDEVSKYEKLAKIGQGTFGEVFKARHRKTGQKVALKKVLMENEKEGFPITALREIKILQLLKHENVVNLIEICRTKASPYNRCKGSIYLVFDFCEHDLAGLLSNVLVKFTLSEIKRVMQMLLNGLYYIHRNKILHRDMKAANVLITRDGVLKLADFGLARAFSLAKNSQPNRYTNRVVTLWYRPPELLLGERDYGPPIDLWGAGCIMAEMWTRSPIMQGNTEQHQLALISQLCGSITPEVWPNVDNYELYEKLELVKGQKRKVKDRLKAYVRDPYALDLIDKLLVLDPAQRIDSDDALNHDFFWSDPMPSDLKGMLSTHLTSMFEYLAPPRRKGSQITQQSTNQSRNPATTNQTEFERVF

What all share (assay): affinity purification with mass spectrometry
Test [1] concerns the target Estrogen receptor alpha (ER), wildtype (human (endogenous in Ishikawa)) (UniProt P03372).
Test [2] addresses Estrogen receptor alpha D538G mutant (ER-D538G), FLAG-tagged (human (endogenous in Ishikawa)) (UniProt P03372).
Test [3] deals with Estrogen receptor alpha Y537S mutant (ER-Y537S), FLAG-tagged (human (endogenous in Ishikawa)) (UniProt P03372).

Results are given in words; binding and its absence hold for the method and conditions named. Binding seen in cells or lysates may run through a third protein. These calls come from enrichment with a bait or labelling near it, and not all partners need be listed.

Turning to “Histone Acetyltransferase P300 (EP300) (from UniProt Q09472 1-2414)”, the binding entry in test [1] is given as “binds”.
Turning to “Cyclin Dependent Kinase 9 (CDK9) (from UniProt P50750 1-372)”, the binding result in test [1], in test [2] and in test [3] was “binds” each time.
